The supplement of paper PMC9233669
Variants at the floor of the assay are shown more often than the library holds them.

Key:
biotinyl-Trp-oxazolone = assay: self-aminoacylation, catalytic enhancement (BWO) (fold over background); higher = more active; k-Seq, kA / k0A0; sequences stand for … in GGGAAUGGAUCCACAUCUACGAAUUC…UUCACUGCAGACUUGACGAAGCUG
Outline: (§1)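 Working in 50 μL HEPES/NaCl/KCl/MgCl2/CaCl2 buffer with 5% acetonitrile at pH 6.9–7.0, mutagenized RNA pools (0.43 μM; 21-nt variable region) were reacted with 2–1250 μM of each biotinyl-aminoacyl-oxazolone for 90 minutes at room temperature. Streptavidin capture followed, with quantification by triplicate qPCR and Illumina sequencing. Catalytic enhancement is reported as median kA over the uncatalyzed rate, the low-activity peak of a bimodal Gaussian fit to the data.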

biotinyl-Leu-oxazolone = assay: self-aminoacylation, catalytic enhancement (BLO) (fold over background); higher = more active; k-Seq, kA / k0A0; sequences stand for … in GGGAAUGGAUCCACAUCUACGAAUUC…UUCACUGCAGACUUGACGAAGCUG
Outline: as §1

biotinyl-Val-oxazolone = assay: self-aminoacylation, catalytic enhancement (BVO) (fold over background); higher = more active; k-Seq, kA / k0A0; sequences stand for … in GGGAAUGGAUCCACAUCUACGAAUUC…UUCACUGCAGACUUGACGAAGCUG
Outline: as §1

biotinyl-Ile-oxazolone = assay: self-aminoacylation, catalytic enhancement (BIO) (fold over background); higher = more active; k-Seq, kA / k0A0; sequences stand for … in GGGAAUGGAUCCACAUCUACGAAUUC…UUCACUGCAGACUUGACGAAGCUG
Outline: as §1

biotinyl-Met-oxazolone = assay: self-aminoacylation, catalytic enhancement (BMO) (fold over background); higher = more active; k-Seq, kA / k0A0; sequences stand for … in GGGAAUGGAUCCACAUCUACGAAUUC…UUCACUGCAGACUUGACGAAGCUG
Outline: as §1

biotinyl-Phe-oxazolone = assay: self-aminoacylation, catalytic enhancement (BFO) (fold over background); higher = more active; k-Seq, kA / k0A0; sequences stand for … in GGGAAUGGAUCCACAUCUACGAAUUC…UUCACUGCAGACUUGACGAAGCUG
Outline: as §1

Sequence	self-aminoacylation (biotinyl-Trp-oxazolone)	self-aminoacylation (biotinyl-Leu-oxazolone)	self-aminoacylation (biotinyl-Val-oxazolone)	self-aminoacylation (biotinyl-Ile-oxazolone)	self-aminoacylation (biotinyl-Met-oxazolone)	self-aminoacylation (biotinyl-Phe-oxazolone)
CCACACUUCAAGCAAGGGGUC [Fam1B.1 aminoacylation ribozyme variant]	0.677	0.784	0.784	0.687	0.574	0.923
CCACACUUCAAGCAAUCAGCC [Fam1B.1 aminoacylation ribozyme variant]	2.26	1.51	1.72	1.04	0.884	3.01
CCACACUUCAAGCAAUCAGGC [Fam1B.1 aminoacylation ribozyme variant]	1.04	0.729	1.01	0.856	0.59	0.979
CCACACUUCAAGCAAUCCGUC [Fam1B.1 aminoacylation ribozyme variant]	0.828	0.664	1.01	0.894	0.659	1.34
CCACACUUCAAGCAAUCUUUC [Fam1B.1 aminoacylation ribozyme variant]	0.468	0.463	0.644	0.589	0.489	1.1
CCACACUUCAAGCAAUGGGAC [Fam1B.1 aminoacylation ribozyme variant]	1.54	0.783	1.26	1.19	1.12	0.964
CCACACUUCAAGCAAUGUGUC [Fam1B.1 aminoacylation ribozyme variant]	0.538	0.586	0.738	0.672	0.541	1.22
CCACACUUCAAGCACUCCGUC [Fam1B.1 aminoacylation ribozyme variant]	0.939	1.05	1.24	1.27	1.03	0.705
CCACACUUCAAGCACUCUGUC [Fam1B.1 aminoacylation ribozyme variant]	0.416	0.321	0.502	0.486	0.423	0.695
CCACACUUCAAGCAGUUGGUC [Fam1B.1 aminoacylation ribozyme variant]	0.38	0.518	0.686	0.704	0.649	0.619
CCACACUUCAAGCCAUCGGCC [Fam1B.1 aminoacylation ribozyme variant]	4.97	2.85	5	2.98	3.33	5.27
CCACACUUCAAGCGAUCCGUC [Fam1B.1 aminoacylation ribozyme variant]	1.08	1.25	1.24	1.16	1.06	0.723
CCACACUUCAAGCGAUUGGUC [Fam1B.1 aminoacylation ribozyme variant]	0.582	0.621	0.763	0.87	0.665	0.55
CCACACUUCAAUCAAGCGGUC [Fam1B.1 aminoacylation ribozyme variant]	0.769	0.694	0.811	0.709	0.634	0.972
CCACACUUCAAUCAAUCGGAC [Fam1B.1 aminoacylation ribozyme variant]	0.82	0.67	0.924	0.886	0.543	1.36
CCACACUUCAAUCUAUCGGUC [Fam1B.1 aminoacylation ribozyme variant]	0.656	0.611	0.882	0.617	0.733	1.31
CCACACUUCAUGCAGUCGGUC [Fam1B.1 aminoacylation ribozyme variant]	0.748	1.06	0.958	0.852	1.19	0.715
CCACACUUCAUUCAAUCGGUC [Fam1B.1 aminoacylation ribozyme variant]	0.495	0.701	0.744	0.806	0.604	0.605
CCACACUUCCAGCAAUCGGUU [Fam1B.1 aminoacylation ribozyme variant]	1.25	1.34	1.71	1.5	1.18	1.14
CCACACUUCCAGCACUCGGUC [Fam1B.1 aminoacylation ribozyme variant]	1.62	1.13	1.56	1.57	1.26	0.914
CCACACUUCCAGGAAUCGGUC [Fam1B.1 aminoacylation ribozyme variant]	1.46	1.41	1.13	1.31	1.06	0.865

Sequence	self-aminoacylation (biotinyl-Trp-oxazolone)	self-aminoacylation (biotinyl-Leu-oxazolone)	self-aminoacylation (biotinyl-Val-oxazolone)	self-aminoacylation (biotinyl-Ile-oxazolone)	self-aminoacylation (biotinyl-Met-oxazolone)	self-aminoacylation (biotinyl-Phe-oxazolone)
CCACACUUCGAGCAGUCGGUC [Fam1B.1 aminoacylation ribozyme variant]	1.25	1.6	1.52	1.02	0.96	0.778
CCACACUUCGAGCUAUCGGUC [Fam1B.1 aminoacylation ribozyme variant]	0.718	0.991	0.999	0.892	0.778	0.728
CCACACUUCGAGGAAUCGGUC [Fam1B.1 aminoacylation ribozyme variant]	1.09	1.36	1.12	1.16	1.12	1.03
CCACACUUCUAGCAAGCGGUC [Fam1B.1 aminoacylation ribozyme variant]	0.799	1.01	0.911	0.881	0.779	0.819
CCACACUUCUAGCAAUGGGUC [Fam1B.1 aminoacylation ribozyme variant]	0.532	0.619	0.728	0.652	0.627	0.944
CCACACUUCUAGCAGUCGGUC [Fam1B.1 aminoacylation ribozyme variant]	0.424	0.807	0.8	0.933	0.596	1.36
CCACACUUCUAGCGAUCGGUC [Fam1B.1 aminoacylation ribozyme variant]	0.736	1.06	1.02	0.985	0.839	0.635
CCACACUUCUUGCAAUCGGUC [Fam1B.1 aminoacylation ribozyme variant]	0.654	0.72	0.765	0.783	0.76	0.7
CCACACUUGAAGUAAUCGGUC [Fam1B.1 aminoacylation ribozyme variant]	1.18	0.703	0.74	0.9	0.76	0.653
CCACACUUUAAGCAAACGGUC [Fam1B.1 aminoacylation ribozyme variant]	0.444	0.552	0.86	0.706	0.522	0.702
CCACACUUUAAGCAAUCAGUC [Fam1B.1 aminoacylation ribozyme variant]	0.749	0.69	0.874	0.76	0.541	1.03
CCACACUUUAAGCAAUUGGUC [Fam1B.1 aminoacylation ribozyme variant]	0.478	0.551	0.656	0.548	0.644	0.71
CCACACUUUAAGCUAUCGGUC [Fam1B.1 aminoacylation ribozyme variant]	0.767	0.81	0.959	1.04	0.726	0.784
CCACACUUUAAUCAAUCGGUC [Fam1B.1 aminoacylation ribozyme variant]	0.666	0.56	0.723	0.701	0.666	1.34
CCACAGUUCAAGCAAUCGGGC [Fam1B.1 aminoacylation ribozyme variant]	3.13	2.18	2.42	2.04	2.81	10
CCACAGUUCAUGCAAUCGGUC [Fam1B.1 aminoacylation ribozyme variant]	0.884	1.16	1.12	1.1	0.972	0.779
CCACAUAUCAAGCAAUCGGUC [Fam1B.1 aminoacylation ribozyme variant]	0.961	0.848	1.22	1.09	0.861	0.98
CCACAUUCCAAGCAAUCGGUC [Fam1B.1 aminoacylation ribozyme variant]	1.02	1.2	1.41	1.35	1.25	1.21
CCACAUUUCAAGCAAACGGUC [Fam1B.1 aminoacylation ribozyme variant]	0.904	0.914	1.07	1.17	0.901	1.32
CCACAUUUCAAGCAAGCGGUC [Fam1B.1 aminoacylation ribozyme variant]	0.779	1.15	1.26	1.3	1.06	1.22
CCACCCUUCAAGCAGUCGGUC [Fam1B.1 aminoacylation ribozyme variant]	1.17	1.18	1.67	1.37	1.12	1.22
